# Experimental data from patent US12466851 (dated 2025).
# Test: general procedure: Fmoc solid-phase peptide synthesis
# Details: oxidative folding step, analytical RP-HPLC, one disulfide bridge, sequence written open
substance,measurement,setting,value
H-D-Phe-Cys-Phe-D-Trp-Lys-Thr-Cys-L-threoninol,crude HPLC purity,run 1,90%
same,crude HPLC purity,run 2,92.59%
same,crude HPLC purity,run 3,90.44%
